This is one part of the list.
Compound: CC1Cc2ccccc2N1C(=O)C1CCCN(C1)C(=O)CCl (mixture of isomers) [TRIM25 ligand 11 (diastereomer mixture)]
Assay: probe-labelled cysteine peptide fold change vs DMSO (competition) (log2 fold change); higher = less target engagement (more negative = stronger competition)
Details: THP-1, incubation time: 4 h
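Note: competitive chemoproteomic profiling in live THP-1 cells with an iodoacetamide desthiobiotin (IA-DTB) probe, comparing probe-labelled peptide intensities in compound-treated cells against DMSO-treated controls.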

Protein sequences, listed by entry. Tags and fused reporters are not part of them. Lines headed by an entry give the natural chain unless they say otherwise; changes in a name come on top.
UniProt P53004: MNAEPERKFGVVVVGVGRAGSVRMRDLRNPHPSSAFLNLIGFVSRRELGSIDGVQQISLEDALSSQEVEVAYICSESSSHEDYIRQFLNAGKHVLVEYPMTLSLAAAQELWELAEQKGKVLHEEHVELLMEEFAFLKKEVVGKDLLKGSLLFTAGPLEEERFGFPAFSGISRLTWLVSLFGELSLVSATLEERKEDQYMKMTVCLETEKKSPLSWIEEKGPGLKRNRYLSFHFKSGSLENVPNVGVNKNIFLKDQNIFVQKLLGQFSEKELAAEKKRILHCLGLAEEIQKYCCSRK
UniProt P54687: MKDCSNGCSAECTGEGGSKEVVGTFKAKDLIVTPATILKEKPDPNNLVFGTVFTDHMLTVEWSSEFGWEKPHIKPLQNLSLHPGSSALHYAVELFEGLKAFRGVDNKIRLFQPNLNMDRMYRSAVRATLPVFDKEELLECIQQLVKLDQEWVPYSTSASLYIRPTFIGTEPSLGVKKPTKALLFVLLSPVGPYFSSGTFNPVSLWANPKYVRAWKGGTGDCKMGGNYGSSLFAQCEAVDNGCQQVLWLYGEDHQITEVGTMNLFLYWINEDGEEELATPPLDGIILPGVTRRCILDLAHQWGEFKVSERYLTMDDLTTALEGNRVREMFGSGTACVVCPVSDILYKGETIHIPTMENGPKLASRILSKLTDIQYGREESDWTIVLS
UniProt O15265: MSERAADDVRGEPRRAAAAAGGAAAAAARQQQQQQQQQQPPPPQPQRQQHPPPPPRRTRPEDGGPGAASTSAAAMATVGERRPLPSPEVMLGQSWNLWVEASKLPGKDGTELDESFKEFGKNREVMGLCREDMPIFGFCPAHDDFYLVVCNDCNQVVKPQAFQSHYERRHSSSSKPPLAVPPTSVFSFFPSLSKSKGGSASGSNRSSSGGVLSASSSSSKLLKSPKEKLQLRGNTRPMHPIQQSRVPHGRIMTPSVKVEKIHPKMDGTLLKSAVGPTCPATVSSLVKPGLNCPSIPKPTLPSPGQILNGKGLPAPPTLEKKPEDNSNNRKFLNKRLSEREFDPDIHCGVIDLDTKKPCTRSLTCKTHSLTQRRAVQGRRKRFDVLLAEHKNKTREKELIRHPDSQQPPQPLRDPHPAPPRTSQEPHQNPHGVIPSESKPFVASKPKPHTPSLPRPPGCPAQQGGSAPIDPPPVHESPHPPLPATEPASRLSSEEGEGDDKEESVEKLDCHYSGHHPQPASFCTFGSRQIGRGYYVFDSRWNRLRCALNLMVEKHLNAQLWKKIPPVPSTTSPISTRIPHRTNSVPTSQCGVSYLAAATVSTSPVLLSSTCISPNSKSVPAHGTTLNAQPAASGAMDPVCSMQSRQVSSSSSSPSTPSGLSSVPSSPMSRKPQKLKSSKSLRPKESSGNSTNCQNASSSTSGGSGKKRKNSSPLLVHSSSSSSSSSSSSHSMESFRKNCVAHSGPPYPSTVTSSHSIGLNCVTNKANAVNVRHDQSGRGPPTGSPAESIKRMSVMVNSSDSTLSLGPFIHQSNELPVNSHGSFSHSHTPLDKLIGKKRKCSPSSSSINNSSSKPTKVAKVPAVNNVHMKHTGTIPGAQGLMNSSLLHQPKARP
UniProt Q9P281: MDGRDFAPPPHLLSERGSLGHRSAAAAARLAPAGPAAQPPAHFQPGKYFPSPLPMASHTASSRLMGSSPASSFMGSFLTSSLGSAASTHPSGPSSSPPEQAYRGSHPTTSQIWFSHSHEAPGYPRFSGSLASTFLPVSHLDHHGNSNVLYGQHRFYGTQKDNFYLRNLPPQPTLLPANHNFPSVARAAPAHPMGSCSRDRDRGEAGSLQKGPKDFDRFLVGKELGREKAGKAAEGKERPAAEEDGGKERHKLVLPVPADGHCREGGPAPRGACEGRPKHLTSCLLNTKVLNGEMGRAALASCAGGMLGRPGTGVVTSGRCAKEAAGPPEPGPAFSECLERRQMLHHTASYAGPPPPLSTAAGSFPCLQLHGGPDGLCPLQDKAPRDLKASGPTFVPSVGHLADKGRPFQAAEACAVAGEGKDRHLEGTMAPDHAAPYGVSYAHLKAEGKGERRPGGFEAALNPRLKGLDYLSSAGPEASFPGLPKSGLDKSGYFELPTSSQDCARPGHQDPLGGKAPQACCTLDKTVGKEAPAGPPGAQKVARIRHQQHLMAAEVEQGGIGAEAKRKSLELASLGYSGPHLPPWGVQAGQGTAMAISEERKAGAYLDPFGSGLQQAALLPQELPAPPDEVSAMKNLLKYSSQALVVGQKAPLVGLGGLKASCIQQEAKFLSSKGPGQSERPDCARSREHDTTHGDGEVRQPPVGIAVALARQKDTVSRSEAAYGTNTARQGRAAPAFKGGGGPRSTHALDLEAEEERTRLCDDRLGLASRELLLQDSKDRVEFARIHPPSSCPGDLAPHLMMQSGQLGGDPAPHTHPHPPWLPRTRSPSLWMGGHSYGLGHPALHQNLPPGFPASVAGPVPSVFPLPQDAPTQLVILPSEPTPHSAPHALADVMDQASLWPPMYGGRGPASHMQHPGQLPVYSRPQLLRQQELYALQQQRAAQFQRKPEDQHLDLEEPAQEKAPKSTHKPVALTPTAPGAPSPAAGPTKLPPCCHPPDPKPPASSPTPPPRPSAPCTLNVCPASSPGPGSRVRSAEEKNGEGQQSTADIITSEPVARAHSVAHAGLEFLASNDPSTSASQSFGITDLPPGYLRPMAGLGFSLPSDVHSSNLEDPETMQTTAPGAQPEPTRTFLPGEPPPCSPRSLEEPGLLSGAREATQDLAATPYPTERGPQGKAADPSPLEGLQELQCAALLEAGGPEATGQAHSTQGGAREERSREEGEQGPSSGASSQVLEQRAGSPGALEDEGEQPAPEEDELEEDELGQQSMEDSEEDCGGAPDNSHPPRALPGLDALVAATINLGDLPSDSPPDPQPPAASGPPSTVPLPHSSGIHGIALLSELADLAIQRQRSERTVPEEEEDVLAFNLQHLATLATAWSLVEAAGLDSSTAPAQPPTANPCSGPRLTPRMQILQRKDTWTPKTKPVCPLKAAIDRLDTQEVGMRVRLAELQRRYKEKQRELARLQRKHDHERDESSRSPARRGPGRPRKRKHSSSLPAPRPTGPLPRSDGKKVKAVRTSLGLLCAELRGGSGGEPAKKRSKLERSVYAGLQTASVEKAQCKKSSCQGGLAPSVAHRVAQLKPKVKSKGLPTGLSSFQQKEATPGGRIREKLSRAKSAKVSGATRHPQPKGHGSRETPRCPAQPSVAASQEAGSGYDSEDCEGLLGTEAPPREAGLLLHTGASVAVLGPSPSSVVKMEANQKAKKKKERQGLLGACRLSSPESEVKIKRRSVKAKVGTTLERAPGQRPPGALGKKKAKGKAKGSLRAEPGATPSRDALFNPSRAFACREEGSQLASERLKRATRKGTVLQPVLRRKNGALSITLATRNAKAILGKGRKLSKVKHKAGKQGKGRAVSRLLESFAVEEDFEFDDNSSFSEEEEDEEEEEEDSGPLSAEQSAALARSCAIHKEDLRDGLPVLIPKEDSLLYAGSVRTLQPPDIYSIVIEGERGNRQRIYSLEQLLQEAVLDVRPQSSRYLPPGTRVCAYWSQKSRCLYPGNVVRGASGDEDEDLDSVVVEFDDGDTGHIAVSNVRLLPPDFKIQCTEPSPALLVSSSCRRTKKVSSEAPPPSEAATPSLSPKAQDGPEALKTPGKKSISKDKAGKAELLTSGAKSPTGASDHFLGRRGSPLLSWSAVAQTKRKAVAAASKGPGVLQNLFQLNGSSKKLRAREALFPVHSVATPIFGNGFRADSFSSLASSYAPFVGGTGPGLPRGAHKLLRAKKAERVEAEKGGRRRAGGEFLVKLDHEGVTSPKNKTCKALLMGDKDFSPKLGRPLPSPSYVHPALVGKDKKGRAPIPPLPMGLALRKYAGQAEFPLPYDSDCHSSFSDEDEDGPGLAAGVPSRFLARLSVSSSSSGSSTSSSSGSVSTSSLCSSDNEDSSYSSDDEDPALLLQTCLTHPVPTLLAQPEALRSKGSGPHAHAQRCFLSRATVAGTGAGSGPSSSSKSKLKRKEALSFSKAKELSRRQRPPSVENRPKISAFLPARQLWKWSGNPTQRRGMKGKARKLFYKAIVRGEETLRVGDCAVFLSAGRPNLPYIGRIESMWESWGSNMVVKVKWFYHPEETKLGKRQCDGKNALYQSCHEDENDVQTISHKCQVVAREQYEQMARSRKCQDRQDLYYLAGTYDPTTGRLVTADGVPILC
UniProt O75531: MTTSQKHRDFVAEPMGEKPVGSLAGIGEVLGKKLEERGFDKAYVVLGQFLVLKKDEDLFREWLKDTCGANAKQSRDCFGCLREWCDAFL
UniProt O95861: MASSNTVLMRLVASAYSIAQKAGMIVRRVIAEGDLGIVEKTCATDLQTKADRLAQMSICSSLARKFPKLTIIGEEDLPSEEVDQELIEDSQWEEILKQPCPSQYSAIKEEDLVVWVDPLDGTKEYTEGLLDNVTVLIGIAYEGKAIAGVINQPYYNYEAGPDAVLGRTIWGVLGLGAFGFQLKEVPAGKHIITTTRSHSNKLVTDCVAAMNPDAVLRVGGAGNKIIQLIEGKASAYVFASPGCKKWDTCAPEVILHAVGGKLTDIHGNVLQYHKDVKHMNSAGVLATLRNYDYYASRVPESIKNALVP
UniProt Q9NRL2: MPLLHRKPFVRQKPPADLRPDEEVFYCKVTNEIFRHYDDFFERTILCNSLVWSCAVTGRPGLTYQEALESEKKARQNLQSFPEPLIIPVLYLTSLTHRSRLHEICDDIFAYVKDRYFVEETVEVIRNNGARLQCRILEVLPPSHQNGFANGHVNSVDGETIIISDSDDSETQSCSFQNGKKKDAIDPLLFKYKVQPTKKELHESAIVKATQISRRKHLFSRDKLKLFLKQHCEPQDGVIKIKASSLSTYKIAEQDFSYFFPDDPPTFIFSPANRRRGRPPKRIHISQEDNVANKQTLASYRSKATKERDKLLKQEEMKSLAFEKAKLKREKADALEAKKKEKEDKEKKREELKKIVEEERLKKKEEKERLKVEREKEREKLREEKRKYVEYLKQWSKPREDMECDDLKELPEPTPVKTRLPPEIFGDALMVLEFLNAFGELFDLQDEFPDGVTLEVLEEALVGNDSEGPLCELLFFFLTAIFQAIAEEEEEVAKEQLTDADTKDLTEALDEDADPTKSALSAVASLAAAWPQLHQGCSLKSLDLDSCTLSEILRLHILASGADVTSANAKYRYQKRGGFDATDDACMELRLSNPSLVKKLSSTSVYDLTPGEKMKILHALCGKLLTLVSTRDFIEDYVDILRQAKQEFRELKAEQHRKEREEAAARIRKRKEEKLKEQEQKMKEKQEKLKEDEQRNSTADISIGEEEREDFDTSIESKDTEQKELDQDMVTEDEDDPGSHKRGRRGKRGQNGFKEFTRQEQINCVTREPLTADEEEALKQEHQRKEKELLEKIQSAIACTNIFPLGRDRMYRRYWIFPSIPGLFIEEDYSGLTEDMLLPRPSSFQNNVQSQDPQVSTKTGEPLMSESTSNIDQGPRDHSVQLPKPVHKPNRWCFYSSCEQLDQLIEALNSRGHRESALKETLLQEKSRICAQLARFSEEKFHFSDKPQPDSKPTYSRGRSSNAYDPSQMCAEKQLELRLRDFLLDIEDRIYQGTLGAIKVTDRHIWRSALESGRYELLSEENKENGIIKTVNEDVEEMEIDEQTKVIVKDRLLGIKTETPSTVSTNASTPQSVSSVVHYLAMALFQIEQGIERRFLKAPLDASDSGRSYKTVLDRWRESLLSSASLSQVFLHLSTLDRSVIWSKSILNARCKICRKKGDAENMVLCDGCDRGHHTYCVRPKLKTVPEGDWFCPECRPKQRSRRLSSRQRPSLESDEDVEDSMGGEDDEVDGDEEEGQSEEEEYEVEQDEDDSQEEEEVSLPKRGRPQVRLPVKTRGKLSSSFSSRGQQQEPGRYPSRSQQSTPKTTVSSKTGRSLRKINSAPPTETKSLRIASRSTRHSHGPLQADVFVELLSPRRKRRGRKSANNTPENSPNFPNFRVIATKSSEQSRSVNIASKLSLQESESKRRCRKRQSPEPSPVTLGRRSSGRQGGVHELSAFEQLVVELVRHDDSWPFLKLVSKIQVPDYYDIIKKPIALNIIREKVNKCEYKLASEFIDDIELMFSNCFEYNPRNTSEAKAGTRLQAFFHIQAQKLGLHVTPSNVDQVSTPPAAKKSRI
UniProt Q9NWV8, whole entry, looked up: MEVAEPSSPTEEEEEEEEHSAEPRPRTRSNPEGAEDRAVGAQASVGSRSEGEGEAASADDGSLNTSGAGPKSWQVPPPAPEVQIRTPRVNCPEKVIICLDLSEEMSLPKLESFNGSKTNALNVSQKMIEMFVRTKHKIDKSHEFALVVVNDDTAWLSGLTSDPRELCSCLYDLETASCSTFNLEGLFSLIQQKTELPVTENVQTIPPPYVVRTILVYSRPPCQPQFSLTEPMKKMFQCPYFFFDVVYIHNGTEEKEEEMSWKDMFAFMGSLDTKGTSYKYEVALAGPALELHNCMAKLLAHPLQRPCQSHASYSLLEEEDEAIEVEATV

Row | Target | probe-labelled cysteine peptide fold change (10 µM) | probe-labelled cysteine peptide fold change (50 µM)
1 | BCKDK_O14874_118_CLPFIIGCNPTILHVHELYIR (UniProt O14874) | 0.128 | 0.102
2 | BLMH_Q13867_164_CFPESYTTEATR (UniProt Q13867) | 0.0281 | -0.0517
3 | BLVRA_P53004_281_RILHCLGLAEEIQK (UniProt P53004) | -0.081 | 0.124
4 | BCAT1_P54687_338_EMFGSGTACVVCPVSDILYK (UniProt P54687) | 0.15 | 0.0428
5 | ATXN10_Q9UBB4_95_NACIECSVNQNSIR (UniProt Q9UBB4) | 0.00675 | 0.27
6 | BIRC6_Q9NR09_4183_HAQCLLR (UniProt Q9NR09) | 0.166 | 0.0697
7 | ATXN7_O15265_347_EFDPDIHCGVIDLDTK (UniProt O15265) | -0.116 | -0.13
8 | BAHCC1_Q9P281_683_GPGQSERPDCAR (UniProt Q9P281) | -0.0273 | -0.0998
9 | BANF1_O75531_77_DCFGCLR (UniProt O75531) | -0.192 | 0.0113
10 | BPNT1_O95861_59_LAQMSICSSLAR (UniProt O95861) | 0.0908 | -0.0214
11 | BIN2_Q9UBW5_205_IGCYVTIFQNISNLR (UniProt Q9UBW5) | 0.21 | 0.194
12 | BAZ1A_Q9NRL2_799_IQSAIACTNIFPLGR (UniProt Q9NRL2) | 0.0381 | 0.0711
13 | BPTF_Q12830_1241_EGCQSDSMR (UniProt Q12830) | -0.0339 | -0.137
14 | BPNT1_O95861_100_QPCPSQYSAIKEEDLVVWVDPLDGTK (UniProt O95861) | -0.359 | 0.0995
15 | BABAM1_Q9NWV8_222_TILVYSRPPCQPQFSLTEPMK (UniProt Q9NWV8) | 0.0584 | -0.121

Another view of part of the listing above.
Row,Target,probe-labelled cysteine peptide fold change (10 µM),probe-labelled cysteine peptide fold change (50 µM)
3,BLVRA_P53004_281_RILHCLGLAEEIQK (UniProt P53004),-0.081,0.124
4,BCAT1_P54687_338_EMFGSGTACVVCPVSDILYK (UniProt P54687),0.15,0.0428

From the supplement of paper PMC12067093, “Discovery and optimisation of a covalent ligand for TRIM25 and its application to targeted protein ubiquitination” (Chemical Science, 2025)
